Laboratory results taken from patent US20100047233A1, “TREATMENT OF POST-MENOPAUSAL AND POST-HYSTERECTOMY MEDIATED COGNITIVE DISORDERS” (priority 2006, published 2010).

Assay: Body weight 3 months post-surgery
Format: in vivo, mice
Conditions: irrespective of drug treatment

For estrogen, the “body weight of OVX+estrogen replaced group compared with SHAM” value was “not different from the SHAM operated group”.
